Measurements from PMC2740829.
Results are given in words; binding and its absence hold for the method and conditions named. In cells and extracts the contact can be indirect. Some results given as binding are weak or reduced against the parent protein; the word gives no strength. One block for each binder: values may come before it.

Amino acid sequences for entries named in this document (tags omitted).
UniProt P11142: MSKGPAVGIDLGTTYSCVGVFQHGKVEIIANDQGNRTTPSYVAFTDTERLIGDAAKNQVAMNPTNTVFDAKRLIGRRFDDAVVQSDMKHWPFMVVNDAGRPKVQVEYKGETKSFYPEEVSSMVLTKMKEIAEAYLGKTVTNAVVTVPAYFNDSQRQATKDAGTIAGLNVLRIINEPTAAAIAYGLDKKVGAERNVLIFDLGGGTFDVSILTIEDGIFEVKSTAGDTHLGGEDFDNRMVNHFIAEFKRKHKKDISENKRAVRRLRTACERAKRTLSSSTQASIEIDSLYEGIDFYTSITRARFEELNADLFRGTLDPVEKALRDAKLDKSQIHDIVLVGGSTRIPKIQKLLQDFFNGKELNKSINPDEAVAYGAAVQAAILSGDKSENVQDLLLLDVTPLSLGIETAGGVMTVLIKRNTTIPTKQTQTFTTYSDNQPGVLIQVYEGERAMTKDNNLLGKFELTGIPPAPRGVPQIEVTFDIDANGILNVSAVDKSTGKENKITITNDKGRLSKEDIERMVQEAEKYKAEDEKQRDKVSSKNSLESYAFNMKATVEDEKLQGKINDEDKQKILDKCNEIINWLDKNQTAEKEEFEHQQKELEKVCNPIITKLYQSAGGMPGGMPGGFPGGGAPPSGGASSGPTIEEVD

Target: HSPA8 Heat shock cognate 71 kDa protein (Heat shock 70 kDa protein 8), endogenous (human (endogenous in HEK293)) (UniProt P11142)
Test: co-IP; endogenous HSPA8 immunoprecipitated with anti-HSPA8 antibody on Sepharose Protein A beads from mitochondrial isolates of HEK293 cells (expressing FLAG.OMI.S306C by the legend); IEF/2D separation and immunoblot

binding: binds
B1: PDHB Pyruvate dehydrogenase E1 component beta subunit, mitochondrial, endogenous (protein, UniProt P11177 31-359)
chain: LQVTVRDAINQGMDEELERDEKVFLLGEEVAQYDGAYKVSRGLWKKYGDKRIIDTPISEMGFAGIAVGAAMAGLRPICEFMTFNFSMQAIDQVINSAAKTYYMSGGLQPVPIVFRGPNGASAGVAAQHSQCFAAWYGHCPGLKVVSPWNSEDAKGLIKSAIRDNNPVVVLENELMYGVPFEFPPEAQSKDFLIPIGKAKIERQGTHITVVSHSRPVGHCLEAAAVLSKEGVECEVINMRTIRPMDMETIEASVMKTNHLVTVEGGWPQFGVGAEICARIMEGPAFNFLDAPAVRVTGADVPMPYAKILEDNSIPQVKDIIFAIKKTLNI

binding: binds
B2: IDH3A Isocitrate dehydrogenase [NAD] subunit alpha, mitochondrial, endogenous (protein, UniProt P50213 28-366)
chain: TGGVQTVTLIPGDGIGPEISAAVMKIFDAAKAPIQWEERNVTAIQGPGGKWMIPSEAKESMDKNKMGLKGPLKTPIAAGHPSMNLLLRKTFDLYANVRPCVSIEGYKTPYTDVNIVTIRENTEGEYSGIEHVIVDGVVQSIKLITEGASKRIAEFAFEYARNNHRSNVTAVHKANIMRMSDGLFLQKCREVAESCKDIKFNEMYLDTVCLNMVQDPSQFDVLVMPNLYGDILSDLCAGLIGGLGVTPSGNIGANGVAIFESVHGTAPDIAGKDMANPTALLLSAVMMLRHMGLFDHAARIEAACFATIKDGKSLTKDLGGNAKCSDFTEEICRRVKDLD
